The values that follow come from PubChem BioAssay AID1347426 (Functional Genomics Laboratory (NCATS/FGL), 2020).

The whole screen tested about 31,000 sequences, of which about 1,400 (4.5%) were called active.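 Rule for the calls: active = median seed-adjusted z-score above 1 or below -1; inactive = the rest.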 The list shows a part of the results.

The nature of this experiment: Novel Modifiers of Survival Motor Neuron (SMN) Protein: Gene Identification via Genome-wide siRNA Screen.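 Note: luminescence tracks full-length SMN protein made from the SMN2 reporter.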 The conditions noted are these: HEK293T SMN2-luciferase reporter, siRNA knockdown, 72 h; actives lie on both sides. In outline: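 Genome-wide siRNA screen (10418 genes, 3 siRNAs each, 1 pmol per well) by reverse transfection in HEK293T cells stably carrying an SMN2-luciferase reporter; luminescence after 72 hours, normalized to negative-control siRNA, log10-transformed, MAD-scored.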
For orientation: Reporter assays use an easily measured gene product as a stand-in for the process of interest.
Regarding CUUUCGAGAUUUUAUUGAATT against JRKL, the median seed-adjusted z-score was inactive: -0.227.
As for GAUGGAAGAGGUAAAAUGATT against GADL1, the figure is inactive: 0; as for CAACAAUGCCGGAAUCGUATT against SDR16C5, inactive: -0.0558; as for CCUCUUUAUUUACCACCUUTT against CUGBP2, inactive: -0.532.
As for GAGAGACUCAAGAACGUGATT against ARCN1, the figure is active: -1.25; as for CACAAGUUCUUGAUAAGUUTT against ASAP1, inactive: 0.0592.
For AGGUCCCAGUGAAUGAAAATT against MTHFS, the median seed-adjusted z-score was inactive: 0.166.
To CGGUUACAAGAGGCCUUAATT against RYR1 belongs inactive: -0.474; to GGAGAUCCAUGGUAGCUUATT against SIRT5, inactive: 0.39; to GGAAGAAUUUUGAGAGUCATT against HEMK1, inactive: 0.101.
As for GGAUUUUACAGGAUAUCUUTT against SPPL2A, the figure is inactive: -0.358; as for GAAAGUAUACAGAACAGAUTT against NDUFA5, inactive: -0.0429; as for CGAUCGCUACUGCUCCAUUTT against ADAMTS14, inactive: 0.209.
Take CGAUUCGUCUGAGCGAAUATT against SYNPO2: the median seed-adjusted z-score was inactive: 0.
To GAUUAUCAAGUGCUAGGAATT against ZW10 belongs inactive: 0.199; to AGUUUGACAUGGUGAGUGATT against PSMC3IP, inactive: -0.0482.
As for GAAAAUACCUGACCCUAGATT against TPP1, the figure is inactive: -0.0334; as for CAGCCGAAAUGUGACAACATT against SMOC2, inactive: -0.72; as for GUGAGGAACUUUAUCGAAATT against PNPLA8, inactive: 0.0576.
As for GUUACCCACUGGACCUAGATT against FTSJ1, the median seed-adjusted z-score is inactive: 0.0774.
Take CCAGGGUGAGUUAAAGAGATT against MYL4: the median seed-adjusted z-score was inactive: -0.388.
As for CGAUGAAAUGAGUCUGAUUTT against P4HTM, the figure is inactive: -0.257; as for GGACGAAUAGAAGUAAAUATT against TFB2M, inactive: 0.206.
As for GCAGAGAAACCAUUCCGAUTT against ZNF224, the figure is inactive: 0.0073; as for GCGUAAACCUUGAAAAUGATT against ZSCAN21, inactive: 0.687.
On to GGCUGUUUGUGAUGGAUAATT against GALNT2, for which the median seed-adjusted z-score was inactive: 0.0798.
As to UGAUGGGACUUUUUGUGUUTT against PPP1R14B, the median seed-adjusted z-score is inactive: 0.205.
To CCCUGGACAUGUUCGCUGATT against CD2BP2 belongs inactive: -0.455; to GUACAGCGAGUAAUAGAUATT against PPP3R1, inactive: 0.18.
As for GGAGCACAGAUUGUUCAAATT against NFYA, the figure is inactive: 0.437; as for GGAUGAUGCUGACCGUGAATT against KIF13B, inactive: 0.456.
To GGACAGUAAUCUCAUUGUUTT against MMP10 belongs inactive: 0.902; to CAGACGACCUGGAAACAGUTT against USP31, inactive: -0.755.
Take GGAUAGGAGUCAUCAGCCUTT against SSTR3: the median seed-adjusted z-score is inactive: 0.
To GCAGACAGGUAAGUAAAGATT against HES7 belongs inactive: -0.286.
As for GGUGGACGGUGUUCACUUUTT against ZBTB17, the figure is inactive: 0.0544; as for GCUCAUCACAGCUCACGUATT against IRF4, inactive: -0.332.
As to CAGUCUUUGUGGGACAAGUTT against ARFRP1, the median seed-adjusted z-score was inactive: -0.329.
As for GCUUCACCAGGGACGUGAATT against CD1D, the figure is inactive: -0.579; as for CCAACAUGGUUCUAACCUUTT against NDUFS4, inactive: 0.336.
As for CAGCCUGGAGUAUACAGUATT against ICMT, the figure is inactive: -0.0602.
As for CGUUCAGUCCGUCACCCAATT against GATAD2A, the figure is inactive: -0.715.
Consider GCAAAGGUUUGAGUUCCAATT against ZNF621, for which the median seed-adjusted z-score was inactive: 0.
To GGAAUUAUUAGACUACAAATT against PSAT1 belongs inactive: -0.706.
As for GGCUCUCGUAUGUAACGUATT against USP24, the figure is inactive: 0.101; as for CAAAAUUGCGAGUCCAUGATT against PLCZ1, inactive: 0; as for GGACCUUUGUAAAACGAAATT against MMEL1, inactive: 0.325.
As for CCUUAAGGCCGGAUGUUUATT against ATP4B, the figure is inactive: -0.609; as for GGAUCCUCUUGCUCAUAGATT against TIGD6, inactive: -0.443; as for UGGUCAUCGCUAUCUCCUATT against NPBWR1, inactive: 0.344.
As to AGAUGAUUAUGAGAACCAUTT against CAMKV, the median seed-adjusted z-score is inactive: -0.193.
Regarding CACUCGGGUUUUGAAUAUATT against CTH, the median seed-adjusted z-score was inactive: 0.629.
On to GGACAGUAGGGAUACUGGATT against ENTPD7, for which the median seed-adjusted z-score is inactive: 0.368.
As for CAUCCUAGCCUGUGCGAAATT against RFC5, the figure is inactive: -0.644; as for CCUCGACUAUUUUAAGACATT against UBA1, active: 1.34; as for CGUAGAUUCCCAUCAUACATT against BSG, inactive: 0.211.
As for GGGCAUGAUCUGCUACAAUTT against GSTM1, the figure is inactive: -0.55.
As for GAUGAGGAUUUAUGACCAATT against FOXL1, the figure is inactive: -0.448; as for GCACAUGAAGAAUGACGAUTT against CHRNB4, inactive: -0.317; as for CAACCCUGAUAAAAGAGAUTT against VEGFB, inactive: 0.
In the case of CACUGGAUGCGAUAAGACATT against AEBP2, the median seed-adjusted z-score was inactive: -0.212.
As for ACAGUAACGGGAUCGACUATT against RAB40C, the figure is inactive: -0.161; as for GAGUACUCGGUGUUCCUGATT against S100A5, inactive: 0.418.
For AAAAUGCAGUCGACGAAAATT against GTPBP1, the median seed-adjusted z-score was inactive: -0.18.
To GAUGUAUUCUCAAUCGUAUTT against USP9X belongs inactive: -0.443; to GGAGGCUAAUGGUUGCUUUTT against ARPC1B, inactive: 0; to CAAACAGUCAAAAACCCAATT against ADH6, inactive: -0.132.
As for GGGAAGUUGCAGUCAAGAATT against ZFP37, the figure is inactive: -0.305.
To CUGGUUCGCCGAGAAAUUUTT against TRIAP1 belongs inactive: 0.253.
Regarding GGAUGAAACUGACCGAUUUTT against PRKCB1, the median seed-adjusted z-score was inactive: 0.0463.
As for GUGGAGGAAUGGUUCAAUATT against KRT32, the figure is inactive: -0.000598; as for ACCAUACCCUGGACCAUGATT against HK3, inactive: 0.0759.
As for GCCCAACUGUACUGUCAUATT against SMYD1, the figure is inactive: -0.0827; as for AGAGUGUGCCGGUUACCCATT against CD8B, inactive: 0.174; as for GGUCAUAUUCCACAAGGAATT against SLC26A7, inactive: 0.561.
As for GGAUCAUUUUGGGAGCCUUTT against HTR1B, the figure is inactive: -0.221; as for CCGCAUACAUUUUCGAAGATT against PFKP, inactive: -0.352; as for CUGCCGCAAUGACAACAAATT against TRIM42, inactive: -0.153.
With CUAGGAGUCAAAGAAAAUATT against RNPS1, the median seed-adjusted z-score is inactive: 0.
To GGCCUUGGCAAUGACGAUCTT against FXYD7 belongs inactive: -0.0312; to GCUGGUAUCUAUUUAGGUATT against SLCO6A1, inactive: 0.0239; to GACUGAGGCUCAGUACGUATT against PTPRH, inactive: 0.175.
To CGCAAAUCAUCAACUCCAATT against ACTN4 belongs inactive: 0; to GGACUACUUCUGAACUCUATT against TFDP2, inactive: 0.85.
As for GGAUAAAGUGGGAUGAACATT against PRPF3, the figure is inactive: -0.289; as for AGCCAAACAUCAUCAUGGATT against PMS2L3, inactive: 0.175.
Consider GCUACUUCAUCGUUAGAUUTT against ABCB7, for which the median seed-adjusted z-score is inactive: -0.0991.
As for CGCCUUGAAUGGGAGCAAATT against C2, the figure is inactive: -0.0549.
As for GUUUAGAUCUCAAACAAGATT against SPINLW1, the figure is inactive: 0.00582; as for GCGCAGUAUAUCUACAAGATT against MBOAT7, inactive: 0.314; as for GCAAAUGUCACGUUACUCATT against TFAP2B, inactive: 0.
To GAGUAGUUUAGAUAAGUUATT against SPAG9 belongs inactive: 0.0795; to CGCAUGUUCCGGGACAAAATT against BCR, inactive: 0.143.
As for GUAUCUCACUGGAGAAGGATT against LAMC3, the median seed-adjusted z-score is inactive: 0.394.
To GGAGGAACAGUUUCGAUCATT against REV1 belongs inactive: -0.294.
As for GCUAUACGGUUGACAACGATT against ISLR, the figure is inactive: 0.00807; as for GACUGUGAUCGAGCCCUUATT against BIN3, inactive: 0.16; as for CGUUCUCUGUGGGUUCAUUTT against PAOX, inactive: 0.
As for GAUCUACCGAAUACAAGAATT against GPR171, the figure is inactive: -0.449; as for GCAGAAUAGAGGUCAAUGUTT against KPNA2, inactive: 0.157; as for CAACGAUUAGAACAAGGAATT against PTPN21, inactive: 0.
For CUAUCAAUCCCAGCACUAATT against CDKL3, the median seed-adjusted z-score was inactive: 0.243.
Turning to GCUGAGUGUUCGUAACAUUTT against TUBD1, the median seed-adjusted z-score is inactive: -0.00491.
To GAGAAAACAUCGACCUUCATT against NINJ2 belongs inactive: 0.133; to GCUUUUACUCAAAACCAGATT against HESX1, inactive: 0.3; to GGAAGAACGUGAUUCCACATT against EXDL2, inactive: -0.0717.
To AGCGAAUCGUCACCACUUATT against DNM2 belongs inactive: 0.00254; to GGCACUAUCUUACUUAGCATT against LMLN, inactive: 0.
